The source of these data is paper PMC4606987.

Amino acid sequences for entries named in this document (tags omitted).
UniProt Q96FW1: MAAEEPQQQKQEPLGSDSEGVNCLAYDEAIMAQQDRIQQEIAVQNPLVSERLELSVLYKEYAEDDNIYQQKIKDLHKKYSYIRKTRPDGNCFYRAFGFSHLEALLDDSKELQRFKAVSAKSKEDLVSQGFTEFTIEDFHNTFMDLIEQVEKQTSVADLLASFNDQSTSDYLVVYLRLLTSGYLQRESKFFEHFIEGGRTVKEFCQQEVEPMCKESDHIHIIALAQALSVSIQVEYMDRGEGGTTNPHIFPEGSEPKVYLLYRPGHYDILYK

The target in experiment [1] is OTUB1 (OTU domain-containing ubiquitin aldehyde-binding proteins 1) (human (endogenous in MCF-7)) (UniProt Q96FW1). The experiment is described as follows: co-IP; IP with an OTUB1 or a FOXM1 antibody (control IgG beside it) from lysates of MCF-7 and MCF-7EpiR cells, western blot for FOXM1 or OTUB1; also after 1 uM epirubicin for 0, 6 and 24 h. For orientation: In western blotting, separated proteins are transferred to a membrane and probed.

For experiment [2], the target named is Flag-tagged OTUB1 (UniProt Q96FW1). Nature of the experiment: co-IP; FOXM1 co-precipitated with transiently transfected Flag-tagged OTUB1 (Supplementary Figure S1b).

No constants are given. Whether binding was seen depends on the method and setting. Binding seen in cells or lysates may run through a third protein. Some binding calls cover weakened binding; strength is not graded here.

B1: Forkhead box M1 (FOXM1) transcription factor (protein, UniProt Q08050 1-763)
chain: MKTSPRRPLILKRRRLPLPVQNAPSETSEEEPKRSPAQQESNQAEASKEVAESNSCKFPAGIKIINHPTMPNTQVVAIPNNANIHSIITALTAKGKESGSSGPNKFILISCGGAPTQPPGLRPQTQTSYDAKRTEVTLETLGPKPAARDVNLPRPPGALCEQKRETCADGEAAGCTINNSLSNIQWLRKMSSDGLGSRSIKQEMEEKENCHLEQRQVKVEEPSRPSASWQNSVSERPPYSYMAMIQFAINSTERKRMTLKDIYTWIEDHFPYFKHIAKPGWKNSIRHNLSLHDMFVRETSANGKVSFWTIHPSANRYLTLDQVFKPLDPGSPQLPEHLESQQKRPNPELRRNMTIKTELPLGARRKMKPLLPRVSSYLVPIQFPVNQSLVLQPSVKVPLPLAASLMSSELARHSKRVRIAPKVLLAEEGIAPLSSAGPGKEEKLLFGEGFSPLLPVQTIKEEEIQPGEEMPHLARPIKVESPPLEEWPSPAPSFKEESSHSWEDSSQSPTPRPKKSYSGLRSPTRCVSEMLVIQHRERRERSRSRRKQHLLPPCVDEPELLFSEGPSTSRWAAELPFPADSSDPASQLSYSQEVGGPFKTPIKETLPISSTPSKSVLPRTPESWRLTPPAKVGGLDFSPVQTSQGASDPLPDPLGLMDLSTTPLQSAPPLESPQRLLSSEPLDLISVPFGNSSPSDIDVPKPGSPEPQVSGLAANRSLTEGLVLDTMNDSLSKILLDISFPGLDEDPLGPDNINWSQFIPELQ
Regarding B1, the binding entry in experiment [1] and in experiment [2] was “binds” each time.
